Results are given in words; binding and its absence hold for the method and conditions named. Binding calls can cover weak binding; strength is not graded here.
Biological target: acetylated BSA (bovine) (UniProt P02769)
Assay: ELISA

Amino acid sequences for entries named in this document (tags omitted). A change or cut given only in a name is not applied to a line headed by its entry. Residues count along the entry.
UniProt P02769, residues 25-607: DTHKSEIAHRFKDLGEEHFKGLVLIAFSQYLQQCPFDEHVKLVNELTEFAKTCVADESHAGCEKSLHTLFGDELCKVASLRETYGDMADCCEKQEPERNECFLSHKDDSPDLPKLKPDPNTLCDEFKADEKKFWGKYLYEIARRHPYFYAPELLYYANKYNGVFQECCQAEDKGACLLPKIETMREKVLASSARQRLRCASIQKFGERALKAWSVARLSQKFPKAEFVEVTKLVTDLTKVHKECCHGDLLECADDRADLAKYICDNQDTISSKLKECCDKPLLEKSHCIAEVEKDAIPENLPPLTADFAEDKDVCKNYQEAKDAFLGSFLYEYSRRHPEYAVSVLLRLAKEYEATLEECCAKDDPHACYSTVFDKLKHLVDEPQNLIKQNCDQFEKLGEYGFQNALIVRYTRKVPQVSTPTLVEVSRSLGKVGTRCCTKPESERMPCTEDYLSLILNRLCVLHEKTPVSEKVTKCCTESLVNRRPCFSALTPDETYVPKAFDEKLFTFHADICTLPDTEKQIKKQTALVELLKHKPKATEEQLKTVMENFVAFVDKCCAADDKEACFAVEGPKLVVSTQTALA
UniProt Q8N539: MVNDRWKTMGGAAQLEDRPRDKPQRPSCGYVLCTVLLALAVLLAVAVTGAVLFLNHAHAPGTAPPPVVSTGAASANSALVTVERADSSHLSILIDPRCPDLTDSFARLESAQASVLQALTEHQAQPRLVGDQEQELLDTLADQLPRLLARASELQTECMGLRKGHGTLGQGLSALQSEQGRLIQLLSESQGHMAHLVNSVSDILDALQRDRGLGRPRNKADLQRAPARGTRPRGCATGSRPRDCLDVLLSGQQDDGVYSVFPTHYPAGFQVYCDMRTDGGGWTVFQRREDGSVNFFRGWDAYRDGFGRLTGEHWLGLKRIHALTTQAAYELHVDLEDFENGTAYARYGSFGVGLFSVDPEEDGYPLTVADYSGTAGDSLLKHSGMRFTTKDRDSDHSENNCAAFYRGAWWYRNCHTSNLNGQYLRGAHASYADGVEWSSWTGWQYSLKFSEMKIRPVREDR

- binding: binds
Substance: Recombinant FIBCD1 fibrinogen-related domain (FIBCD1-FReD) (from UniProt Q8N539) (domain or fragment)

— publication doi:10.1101/2021.09.09.459581
